Measurements reported in paper PMC8921229.
These are yes or no findings as the source states them, for the method shown. Binding seen in cells or lysates may run through a third protein. Some results given as binding are weak or reduced against the parent protein; the word gives no strength. For some assays here: Where a sequence is shown, tags or fusion partners need not be part of it.

Protein sequences, listed by entry. Tags and fused reporters are not part of them.
UniProt P05198: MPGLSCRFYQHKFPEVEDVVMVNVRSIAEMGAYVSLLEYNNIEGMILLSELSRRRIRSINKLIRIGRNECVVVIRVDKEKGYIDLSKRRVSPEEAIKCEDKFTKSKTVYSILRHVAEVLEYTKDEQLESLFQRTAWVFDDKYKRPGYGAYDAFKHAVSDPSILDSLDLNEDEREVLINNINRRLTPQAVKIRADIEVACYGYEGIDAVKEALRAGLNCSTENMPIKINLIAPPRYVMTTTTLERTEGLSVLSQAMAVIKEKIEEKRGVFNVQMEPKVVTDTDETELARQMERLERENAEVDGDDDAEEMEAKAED

T1: SFB-tagged GSDMD (human) (UniProt P57764)
T1 sequence: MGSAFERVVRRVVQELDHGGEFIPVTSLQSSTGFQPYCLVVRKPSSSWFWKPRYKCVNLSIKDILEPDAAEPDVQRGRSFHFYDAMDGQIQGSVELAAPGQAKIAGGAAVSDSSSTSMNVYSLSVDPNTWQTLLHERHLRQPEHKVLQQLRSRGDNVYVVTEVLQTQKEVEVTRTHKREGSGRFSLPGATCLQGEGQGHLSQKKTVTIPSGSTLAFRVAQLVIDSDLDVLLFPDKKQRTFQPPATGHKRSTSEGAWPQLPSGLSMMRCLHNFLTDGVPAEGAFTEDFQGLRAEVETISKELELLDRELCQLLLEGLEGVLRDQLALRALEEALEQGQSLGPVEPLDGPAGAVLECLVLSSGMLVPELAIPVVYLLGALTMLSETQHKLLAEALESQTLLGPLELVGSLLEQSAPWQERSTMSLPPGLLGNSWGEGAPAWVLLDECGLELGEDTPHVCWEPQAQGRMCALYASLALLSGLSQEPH


Assays:
SFB-tagged GSDMD (human) = molecular target: T1, SFB-tagged GSDMD (human); experiment: co-IP; cells lysed in NETN buffer with protein-phosphatase inhibitor; antibody with protein-G magnetic beads or S-protein agarose beads, overnight at 4 °C; beads washed 5 times with NETN; western blot
[1] = molecular target: eIF2α (human (endogenous in the human cell lines of the paper)) (UniProt P05198); experiment: as above

Row | binding (SFB-tagged GSDMD (human)) | binding [1] | Molecule
1 | binds |  | eIF2α (from UniProt P05198 1-315)
2 |  | binds | GSDMD (protein, UniProt P57764 1-484) MGSAFERVVRRVVQELDHGGEFIPVTSLQSSTGFQPYCLVVRKPSSSWFWKPRYKCVNLSIKDILEPDAAEPDVQRGRSFHFYDAMDGQIQGSVELAAPGQAKIAGGAAVSDSSSTSMNVYSLSVDPNTWQTLLHERHLRQPEHKVLQQLRSRGDNVYVVTEVLQTQKEVEVTRTHKREGSGRFSLPGATCLQGEGQGHLSQKKTVTIPSGSTLAFRVAQLVIDSDLDVLLFPDKKQRTFQPPATGHKRSTSEGAWPQLPSGLSMMRCLHNFLTDGVPAEGAFTEDFQGLRAEVETISKELELLDRELCQLLLEGLEGVLRDQLALRALEEALEQGQSLGPVEPLDGPAGAVLECLVLSSGMLVPELAIPVVYLLGALTMLSETQHKLLAEALESQTLLGPLELVGSLLEQSAPWQERSTMSLPPGLLGNSWGEGAPAWVLLDECGLELGEDTPHVCWEPQAQGRMCALYASLALLSGLSQEPH
